{"sequences": {"note": "By UniProt entry, the sequences of proteins in these tests, tags left out.", "UniProt P61073, whole entry": "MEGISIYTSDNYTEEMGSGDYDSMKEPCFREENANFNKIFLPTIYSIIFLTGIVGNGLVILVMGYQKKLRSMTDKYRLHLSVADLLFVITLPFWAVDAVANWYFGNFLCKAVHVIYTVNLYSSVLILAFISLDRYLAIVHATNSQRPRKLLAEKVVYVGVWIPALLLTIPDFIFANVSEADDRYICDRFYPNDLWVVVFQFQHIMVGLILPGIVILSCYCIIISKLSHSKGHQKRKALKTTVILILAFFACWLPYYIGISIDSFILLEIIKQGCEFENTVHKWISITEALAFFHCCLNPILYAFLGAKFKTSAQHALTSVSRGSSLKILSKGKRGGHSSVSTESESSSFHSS"}, "source": "paper PMC3521869", "about": "(Journal of medicinal chemistry, 2012)", "biological_target": "CXCR4 (Homo sapiens, UniProt P61073)", "type": "cell-based"}
{"compound": "CC[C@H](C)[C@@H]1NC(=O)[C@@H]2CSSC[C@@H]3NC(=O)[C@H](C(C)C)NC(=O)[C@H](CCCCN)NC(=O)[C@H](CCCNC(N)=O)NC(=O)[C@H](Cc4ccc(O)cc4)NC(=O)[C@@H]4CSSC[C@H](NC(=O)[C@H](CCCNC(N)=O)NC(=O)[C@H](CCCNC(=N)N)NC(=O)[C@H](Cc5ccc(O)cc5)NC(=O)[C@H](CO)NC(=O)CNC(=O)[C@@H]5CSSC[C@H](NC(=O)[C@H](CC(=O)O)NC(=O)[C@H](CO)NC(=O)[C@H](CC(=O)O)NC(=O)[C@H](CCCNC(=N)N)NC(=O)[C@H](CCCNC(=N)N)NC(=O)[C@H](CSSC[C@H](NC1=O)C(=O)N[C@@H](CCCNC(=N)N)C(=O)NCC(=O)N[C@@H](CC(N)=O)C(=O)NCC(=O)N[C@@H](Cc1ccc(O)cc1)C(=O)N5)NC(=O)[C@H](CCCNC(=N)N)NC(=O)[C@H](CCC(N)=O)NC(=O)[C@H](CC(C)C)NC(=O)[C@H]([C@@H](C)CC)NC(=O)[C@H](CCCCN)NC(=O)[C@@H]1CCCN1C3=O)C(=O)N1CCC[C@H]1C(=O)NCC(=O)N[C@@H](C)C(=O)N2)C(=O)N[C@@H](CCCNC(=N)N)C(=O)NCC(=O)N1CCC[C@@H]1C(=O)N[C@@H](CCCNC(=N)N)C(=O)N[C@@H](CCCNC(=N)N)C(=O)N[C@@H](Cc1ccc2ccccc2c1)C(=O)N4", "note": "[MCo-CVX-5c]", "values": [{"measurement": "EC50", "result": "19 ± 3", "unit": "nM"}]}
